According to patent publication US20080293916A1, “Hla-Binding Peptide, and Dna Fragment and Recombinant Vector Coding for Said Hla-Binding Peptide” (NEC CORPORATION, priority 2004, published 2008):
Not every detail of the peptide structures is certain; ends, links or a residue may be inferred. Some compounds share one wording; it may come from a single statement. Ends that are not written are not given here.

The sequences below were run on human HLA-A type molecule (assay: Binding experiment, result stated in words for HLA-A type molecule).
Description: <Experiment of Binding Peptide to HLA-A24 Molecule>
The ability of a peptide to bind to an HLA-A24 molecule, which is a product of the HLA-A*2402 gene, was measured using C1R-A24 cells expressing the HLA-A24 molecule (cells prepared by Professor Masafumi Takiguchi, Kumamoto University being supplied with permission by Assistant Professor Masaki Yasukawa, Ehime University).
C1R-A24 cells were first exposed to acidic conditions at a pH of 3.3 for 30 seconds, thus dissociating and removing a light chain β2m, which is associated with HLA class I molecules in common, and an endogenous peptide originally bound to the HLA-A*2402 molecule. After neutralization, purified β2m was added to C1R-A24 cells, the obtained product was added to serial dilutions of a peptide, and incubated on ice for 4 hours. Staining was carried out using fluorescently labeled monoclonal antibody 17A12, which recognizes association (MHC-pep) of the three members, that is, HLA-A*2402 molecule, the peptide, and β2m, which had reassociated during the incubation.
Subsequently, the MHC-pep count per C1R-A24 cell (proportional to the strength of fluorescence of the above-mentioned fluorescent antibody) was quantitatively measured using an FACScan fluorescence-activated cell sorter (Becton Dickinson Biosciences). A binding dissociation constant Kd value between the HLA-A24 molecule and the peptide was calculated from the average strength of fluorescence per cell by a published method (Udaka et al., Immunogenetics, 51, 816-828, 2000).
<Experiment of Binding Peptide to HLA-A2 Molecule>
JY cells were first exposed to acidic conditions at a pH of 3.8 for 30 seconds, thus dissociating and removing a light chain β2m and an endogenous peptide, which were noncovalently associated with the HLA-A*0201 molecule. After neutralization, a reassociation experiment was carried out.
The above-mentioned JY cells and the purified β2m were added to stepped dilutions of peptide for which the binding ability would be measured, and incubation was carried out on ice for 4 hours. HLA-A*0201 molecules that had reassociated up to this point were stained using the associating type specific fluorescently-labeled monoclonal antibody BB7.2.
Subsequently, the amount of fluorescence per cell was measured using a flow cytometer and a dissociation constant Kd value in molar concentration was calculated by a published method (Udaka et al., Immunogenetics, 51, 816-828, 2000).

Sequence	binding to a human HLA-A type molecule (in words)
ALLLRTPYS [compound 38]	experimentally confirmed to bind
ALLPAVPSL [compound 33]	experimentally confirmed to bind
GVFRGIQDV [compound 51]	experimentally confirmed to bind
ILCGAQYRI [compound 40]	experimentally confirmed to bind
NLGATLKGV [compound 31]	experimentally confirmed to bind
NLYQMTSQL [compound 44]	experimentally confirmed to bind
NMTKLQLAL [compound 49]	experimentally confirmed to bind
QQYSVPPPV [compound 39]	experimentally confirmed to bind
